Reference: the supplement of paper PMC3334620
The full ranking holds about 33,000 sequences; the median of “E-score (-0.5 to 0.5)” is about -0.0014, and the highest 2% start at about 0.25. The list shows a part of the results.

molecular target: T1, Cad1 (UniProt P24813); assay: PBM E-score (8-mer binding enrichment) (E-score (-0.5 to 0.5)); higher = stronger / more preferred TF binding; settings: protein concentration: 100 nM; construct: GST-full length
T1 sequence: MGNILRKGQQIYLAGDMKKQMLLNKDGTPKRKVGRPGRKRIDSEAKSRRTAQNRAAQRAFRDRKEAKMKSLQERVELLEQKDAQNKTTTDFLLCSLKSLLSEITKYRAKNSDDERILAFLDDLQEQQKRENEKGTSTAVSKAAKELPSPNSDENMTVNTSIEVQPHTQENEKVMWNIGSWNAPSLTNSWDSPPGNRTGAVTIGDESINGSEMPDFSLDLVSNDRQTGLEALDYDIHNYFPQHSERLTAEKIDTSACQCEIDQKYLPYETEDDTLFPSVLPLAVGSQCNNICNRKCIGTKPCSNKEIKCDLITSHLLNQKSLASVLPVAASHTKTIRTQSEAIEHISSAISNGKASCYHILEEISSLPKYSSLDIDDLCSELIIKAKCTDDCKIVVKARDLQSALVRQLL
Method in brief: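 Bound GST-tagged yeast transcription factors, applied at about 100-200 nM to double-stranded universal all-10-mer Agilent arrays, were detected with fluorescent anti-GST. Scans were normalised with masliner. A modified Wilcoxon-Mann-Whitney statistic, the E-score, was assigned to each ungapped eight-base word pooled with its reverse complement by the Universal PBM Analysis Suite.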

Compared with GGAGACAA, CCCAATCC is lower in “PBM E-score” value: 0.0925 for the first, -0.113 for the second.

Compared with CCATCAGC, ATGTATGC is higher in “PBM E-score” value: -0.0845 for the first, 0.138 for the second.

Compared with CCGTACGC, ATCCCCAT is lower in “PBM E-score” value: -0.0844 for the first, -0.102 for the second.

Going from CAAGGGAG to AAGCCGGT, the “PBM E-score” value rises from -0.152 to -0.024.

Compared with GCGGGAGC, CGTCCTAG is higher in “PBM E-score” value: -0.146 for the first, -0.0805 for the second.

Going from AAAGACTA to TATTGTGA, the “PBM E-score” value rises from -0.15 to 0.0688.

First: AGCTTCGC
Second: ACTAGACA
The “PBM E-score” value of the first is lower: -0.107 for the first, 0.112 for the second.

Compared with CGTAGATC, ATCTAATA is higher in “PBM E-score” value: 0.0236 for the first, 0.147 for the second.

First: CAGCTATC
Second: CCCCATCA
The “PBM E-score” value of the first is lower: -0.0176 for the first, -0.00342 for the second.

Going from AAGTCTGA to CGAGGCCG, the “PBM E-score” value rises from -0.14 to -0.0246.

First: CAGCCATA
Second: CACAGAAC
The “PBM E-score” value of the first is higher: -0.0726 for the first, -0.134 for the second.

First: GTGTCTCA
Second: CTAGGGAC
The “PBM E-score” value of the first is higher: 0.0466 for the first, -0.06 for the second.

Going from AGGAGAAG to AATAATAT, the “PBM E-score” value rises from -0.167 to 0.208.

Compared with CTTGTCAA, AGCCATTC is lower in “PBM E-score” value: -0.0346 for the first, -0.0993 for the second.

First: AGTACGAC
Second: CCACATGG
The “PBM E-score” value of the first is higher: 0.0664 for the first, -0.0422 for the second.

Going from CACGTGTA to GACATCTA, the “PBM E-score” value rises from -0.129 to 0.097.

First: AGGCGCCT
Second: ATGAGAAG
The “PBM E-score” value of the first is higher: -0.0621 for the first, -0.0696 for the second.

Compared with AGCTGTTG, TCGAGTAA is higher in “PBM E-score” value: 0.148 for the first, 0.221 for the second.

Going from ACGCGAGC to CAAACTGG, the “PBM E-score” value falls from 0.214 to -0.0454.

First: GAGGTCCA
Second: TTGGAAAA
The “PBM E-score” value of the first is higher: -0.103 for the first, -0.113 for the second.

Going from AGGCAATA to CTTGGGTC, the “PBM E-score” value rises from -0.123 to -0.0772.

Compared with ACGGGGAT, CACCCTCG is lower in “PBM E-score” value: -0.0909 for the first, -0.184 for the second.

First: AACGAATA
Second: GCAGTAGC
The “PBM E-score” value of the first is higher: -0.0413 for the first, -0.0461 for the second.

Going from ACCATTGA to AAGCAAGA, the “PBM E-score” value falls from 0.00633 to -0.0477.

Going from TAAGTCAA to GACAATCC, the “PBM E-score” value rises from -0.0989 to 0.16.

First: CTTATAGA
Second: ATGCTAGC
The “PBM E-score” value of the first is higher: 0.014 for the first, -0.0118 for the second.

First: AGTACTGA
Second: CAATTGGA
The “PBM E-score” value of the first is higher: 0.134 for the first, -0.0273 for the second.

Going from ATGGTTTC to ACCGGGCG, the “PBM E-score” value falls from 0.0425 to -0.182.

Compared with CACATTCA, CCAAAAAC is higher in “PBM E-score” value: -0.0432 for the first, 0.116 for the second.

First: AGATCTCG
Second: AATCAGTC
The “PBM E-score” value of the first is lower: 0.0913 for the first, 0.172 for the second.

Compared with CAGACCGC, ACTATCAG is lower in “PBM E-score” value: 0.0752 for the first, 0.0079 for the second.

Going from CGGCCCGA to CAACCCCC, the “PBM E-score” value falls from 0.00519 to -0.387.

Going from AACGCAAG to CGAATAAG, the “PBM E-score” value falls from 0.0816 to -0.118.

First: CAACACGA
Second: CAAGTCCA
The “PBM E-score” value of the first is higher: 0.134 for the first, -0.0962 for the second.

Compared with GTATCGTA, GCCTACGA is lower in “PBM E-score” value: 0.104 for the first, 0.0795 for the second.

Going from ACCACGCC to TCGACCGA, the “PBM E-score” value rises from -0.187 to 0.0694.

Going from AAACCACA to AGAGCTTC, the “PBM E-score” value falls from 0.0171 to -0.181.

Going from AGGTCCTG to CGCTCGAA, the “PBM E-score” value rises from -0.106 to 0.122.

Going from ACAAACCG to GACAAGTA, the “PBM E-score” value falls from 0.038 to -0.102.

Going from CACTCAAC to GGTGGATA, the “PBM E-score” value falls from 0.1 to -0.0363.

Compared with TAGATAAA, ACGAAACG is lower in “PBM E-score” value: 0.0266 for the first, 0.0195 for the second.

Going from ACATAGTG to GACTAACC, the “PBM E-score” value falls from 0.0291 to -0.122.

First: GCTGCTTA
Second: CCGTTTTA
The “PBM E-score” value of the first is higher: 0.0501 for the first, -0.188 for the second.

Compared with CCAATTGG, ATAGGCCA is lower in “PBM E-score” value: 0.263 for the first, -0.0861 for the second.

Compared with CACTCGCA, AAAACTCT is lower in “PBM E-score” value: 0.0673 for the first, -0.0253 for the second.

First: CGGTGGGA
Second: CCCACAAC
The “PBM E-score” value of the first is higher: -0.0551 for the first, -0.122 for the second.

Compared with CTAATGGC, ATTCACTG is higher in “PBM E-score” value: -0.00205 for the first, 0.0352 for the second.

Going from AGCGTGCA to CACCGGGG, the “PBM E-score” value falls from 0.131 to -0.402.

Compared with GATACTGC, CCCTGTAG is lower in “PBM E-score” value: 0.0988 for the first, -0.05 for the second.

Compared with AGACGTCC, ATCTGAAA is lower in “PBM E-score” value: 0.0957 for the first, 0.065 for the second.

First: ACGTGACC
Second: GTGAGAGA
The “PBM E-score” value of the first is lower: -0.263 for the first, 0.021 for the second.

First: CCAGGTTA
Second: GTTCAAAA
The “PBM E-score” value of the first is lower: 0.0257 for the first, 0.0283 for the second.

Compared with GAATCGGC, CAAAGACC is lower in “PBM E-score” value: 0.144 for the first, -0.127 for the second.

First: CACCCATA
Second: GATGGACA
The “PBM E-score” value of the first is lower: -0.159 for the first, 0.102 for the second.

First: ACTCTCGG
Second: TCCGAAAA
The “PBM E-score” value of the first is lower: -0.0764 for the first, -0.0265 for the second.

First: ACCCTGAG
Second: ATAACTAG
The “PBM E-score” value of the first is higher: 0.0191 for the first, -0.00544 for the second.

Going from GACGCACA to CTATGATC, the “PBM E-score” value rises from -0.0334 to 0.0514.

Compared with ACACCTCA, ACCGGCTC is higher in “PBM E-score” value: -0.0985 for the first, -0.0669 for the second.

First: CCTCGAGG
Second: CTTCCGGC
The “PBM E-score” value of the first is higher: 0.0297 for the first, 0.00067 for the second.

Going from CTCCGCAA to CGTTTATA, the “PBM E-score” value rises from -0.0758 to 0.237.

Compared with AGAAGATA, CCATTAAA is lower in “PBM E-score” value: 0.116 for the first, -0.0479 for the second.

First: CACTGGCC
Second: AGCTTCGG
The “PBM E-score” value of the first is lower: -0.161 for the first, -0.0805 for the second.

First: ATGATTGC
Second: CACTATCG
The “PBM E-score” value of the first is higher: 0.154 for the first, 0.0968 for the second.

First: TGATGGCA
Second: CGATACTA
The “PBM E-score” value of the first is lower: -0.203 for the first, 0.163 for the second.

Going from CATCTGAG to AGGGGTGC, the “PBM E-score” value falls from -0.0546 to -0.208.

Compared with AGGCACAC, GATAAGCA is higher in “PBM E-score” value: -0.181 for the first, 0.154 for the second.

Compared with ACGCAGCA, CCATGACG is lower in “PBM E-score” value: 0.121 for the first, -0.0191 for the second.

Compared with GCCGGAGA, CTGCGCTA is higher in “PBM E-score” value: -0.051 for the first, 0.0362 for the second.

Compared with AGACGAGC, GCCTCCAA is lower in “PBM E-score” value: -0.0882 for the first, -0.159 for the second.

First: AACAGGAG
Second: CGCGTGAC
The “PBM E-score” value of the first is lower: -0.131 for the first, 0.056 for the second.

Compared with GTGGTACA, TCGCGAAA is higher in “PBM E-score” value: -0.133 for the first, 0.168 for the second.

Going from CCGCATCG to TACGAGAA, the “PBM E-score” value rises from -0.346 to 0.0359.

First: TGAAATAA
Second: CTAAAATC
The “PBM E-score” value of the first is higher: 0.0334 for the first, -0.0595 for the second.

Compared with GCTTTTAA, CTGGTCTA is lower in “PBM E-score” value: -0.0518 for the first, -0.15 for the second.

First: GCCGACTA
Second: AGTAGAAT
The “PBM E-score” value of the first is higher: 0.227 for the first, 0.0697 for the second.

Compared with ACCGCTTG, CAACGGGA is higher in “PBM E-score” value: -0.104 for the first, -0.0881 for the second.

Compared with CGACATCC, AGATTTCC is higher in “PBM E-score” value: -0.0474 for the first, 0.185 for the second.

Compared with AAGGCAAA, ACGTTCTA is higher in “PBM E-score” value: -0.0488 for the first, 0.0389 for the second.

First: ATGACCTA
Second: CGCGCCCC
The “PBM E-score” value of the first is higher: 0.016 for the first, -0.00126 for the second.

First: ATGATTCA
Second: CCGTCATC
The “PBM E-score” value of the first is lower: -0.0406 for the first, -0.013 for the second.

Going from AGATTAGA to AAGTTCGT, the “PBM E-score” value rises from -0.0156 to 0.0241.

First: GAGCTGCA
Second: CATCCGCC
The “PBM E-score” value of the first is lower: -0.0895 for the first, -0.0163 for the second.

First: AGGCTGGA
Second: ACACGATC
The “PBM E-score” value of the first is lower: -0.176 for the first, -0.0881 for the second.

Going from ACTAATCT to CGCCAGAC, the “PBM E-score” value falls from 0.135 to 0.0825.

Going from ACAAGTAA to CAGACTCC, the “PBM E-score” value rises from -0.136 to -0.0716.

Compared with CTTTATAC, GAATACCC is higher in “PBM E-score” value: -0.194 for the first, -0.0103 for the second.
